Here are results for seven substances from article PMC7084908.

Sequences of proteins named here, by UniProt entry; tags and fusion partners are left off. A change or cut given only in a name is not applied to a line headed by its entry. Residues count along the entry.
UniProt Q945P1: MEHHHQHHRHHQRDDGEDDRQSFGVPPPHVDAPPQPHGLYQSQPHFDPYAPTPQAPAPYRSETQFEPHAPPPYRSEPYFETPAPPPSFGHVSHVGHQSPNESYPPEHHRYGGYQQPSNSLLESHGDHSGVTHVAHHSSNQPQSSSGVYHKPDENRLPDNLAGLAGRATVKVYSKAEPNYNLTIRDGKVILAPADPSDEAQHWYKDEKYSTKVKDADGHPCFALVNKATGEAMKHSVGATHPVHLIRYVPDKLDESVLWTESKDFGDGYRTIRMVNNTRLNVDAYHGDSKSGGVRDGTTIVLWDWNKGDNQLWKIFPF
UniProt P56808: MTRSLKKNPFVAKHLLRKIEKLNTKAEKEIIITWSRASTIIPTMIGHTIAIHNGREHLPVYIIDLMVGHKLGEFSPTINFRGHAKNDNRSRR
UniProt O23255: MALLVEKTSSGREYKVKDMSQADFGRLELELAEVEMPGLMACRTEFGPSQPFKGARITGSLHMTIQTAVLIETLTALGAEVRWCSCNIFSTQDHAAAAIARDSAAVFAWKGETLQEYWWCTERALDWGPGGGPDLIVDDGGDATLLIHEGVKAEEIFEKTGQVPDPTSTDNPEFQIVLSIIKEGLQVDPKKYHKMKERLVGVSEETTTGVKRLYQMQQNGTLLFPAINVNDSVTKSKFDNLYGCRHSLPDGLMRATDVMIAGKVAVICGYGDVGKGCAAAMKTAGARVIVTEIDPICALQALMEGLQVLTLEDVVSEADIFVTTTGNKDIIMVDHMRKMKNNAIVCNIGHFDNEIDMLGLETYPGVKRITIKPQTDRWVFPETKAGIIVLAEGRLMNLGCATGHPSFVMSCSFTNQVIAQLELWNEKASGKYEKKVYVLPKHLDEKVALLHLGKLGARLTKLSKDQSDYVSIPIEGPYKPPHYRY
UniProt Q9SUQ9: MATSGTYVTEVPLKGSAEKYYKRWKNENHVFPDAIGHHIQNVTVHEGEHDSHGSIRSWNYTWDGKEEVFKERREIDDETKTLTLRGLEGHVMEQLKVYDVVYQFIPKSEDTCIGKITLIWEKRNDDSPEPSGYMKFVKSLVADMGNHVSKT
UniProt P43297, residues 137-352: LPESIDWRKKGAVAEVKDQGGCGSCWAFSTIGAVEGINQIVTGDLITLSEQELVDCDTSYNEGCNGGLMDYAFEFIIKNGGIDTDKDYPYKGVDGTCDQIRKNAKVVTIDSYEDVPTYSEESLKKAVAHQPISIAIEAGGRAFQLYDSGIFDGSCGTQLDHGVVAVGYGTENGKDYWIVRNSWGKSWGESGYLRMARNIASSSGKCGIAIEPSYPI
UniProt P0DH99: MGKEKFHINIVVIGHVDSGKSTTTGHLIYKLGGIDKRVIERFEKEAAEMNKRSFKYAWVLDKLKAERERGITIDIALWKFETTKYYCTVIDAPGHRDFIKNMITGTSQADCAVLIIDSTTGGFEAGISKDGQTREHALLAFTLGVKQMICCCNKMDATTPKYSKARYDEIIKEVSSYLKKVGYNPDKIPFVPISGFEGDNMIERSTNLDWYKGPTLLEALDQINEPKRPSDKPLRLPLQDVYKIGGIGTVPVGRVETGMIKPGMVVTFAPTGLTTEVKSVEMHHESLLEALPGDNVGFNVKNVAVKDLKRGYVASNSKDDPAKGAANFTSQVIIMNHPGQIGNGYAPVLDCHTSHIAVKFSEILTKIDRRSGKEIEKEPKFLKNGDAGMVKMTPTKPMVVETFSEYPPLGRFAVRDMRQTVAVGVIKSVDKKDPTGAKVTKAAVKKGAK
UniProt O65719: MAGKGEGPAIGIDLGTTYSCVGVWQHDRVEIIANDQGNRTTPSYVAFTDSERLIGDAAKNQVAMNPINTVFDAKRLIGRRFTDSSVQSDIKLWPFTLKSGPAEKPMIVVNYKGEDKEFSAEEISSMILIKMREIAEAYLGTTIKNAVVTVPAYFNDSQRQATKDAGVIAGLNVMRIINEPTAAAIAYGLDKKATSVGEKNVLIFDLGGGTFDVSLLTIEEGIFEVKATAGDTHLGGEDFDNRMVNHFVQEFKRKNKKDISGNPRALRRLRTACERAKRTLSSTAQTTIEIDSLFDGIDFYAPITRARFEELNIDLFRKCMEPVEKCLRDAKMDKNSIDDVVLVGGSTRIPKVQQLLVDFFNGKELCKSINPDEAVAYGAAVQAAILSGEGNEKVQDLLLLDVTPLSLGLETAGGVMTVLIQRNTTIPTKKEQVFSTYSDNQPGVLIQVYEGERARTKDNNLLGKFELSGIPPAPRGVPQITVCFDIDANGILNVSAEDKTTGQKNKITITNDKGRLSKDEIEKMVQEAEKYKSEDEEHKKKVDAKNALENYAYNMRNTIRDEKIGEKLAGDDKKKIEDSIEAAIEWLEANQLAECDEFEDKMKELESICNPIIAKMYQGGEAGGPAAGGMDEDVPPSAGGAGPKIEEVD
UniProt F4J8D3: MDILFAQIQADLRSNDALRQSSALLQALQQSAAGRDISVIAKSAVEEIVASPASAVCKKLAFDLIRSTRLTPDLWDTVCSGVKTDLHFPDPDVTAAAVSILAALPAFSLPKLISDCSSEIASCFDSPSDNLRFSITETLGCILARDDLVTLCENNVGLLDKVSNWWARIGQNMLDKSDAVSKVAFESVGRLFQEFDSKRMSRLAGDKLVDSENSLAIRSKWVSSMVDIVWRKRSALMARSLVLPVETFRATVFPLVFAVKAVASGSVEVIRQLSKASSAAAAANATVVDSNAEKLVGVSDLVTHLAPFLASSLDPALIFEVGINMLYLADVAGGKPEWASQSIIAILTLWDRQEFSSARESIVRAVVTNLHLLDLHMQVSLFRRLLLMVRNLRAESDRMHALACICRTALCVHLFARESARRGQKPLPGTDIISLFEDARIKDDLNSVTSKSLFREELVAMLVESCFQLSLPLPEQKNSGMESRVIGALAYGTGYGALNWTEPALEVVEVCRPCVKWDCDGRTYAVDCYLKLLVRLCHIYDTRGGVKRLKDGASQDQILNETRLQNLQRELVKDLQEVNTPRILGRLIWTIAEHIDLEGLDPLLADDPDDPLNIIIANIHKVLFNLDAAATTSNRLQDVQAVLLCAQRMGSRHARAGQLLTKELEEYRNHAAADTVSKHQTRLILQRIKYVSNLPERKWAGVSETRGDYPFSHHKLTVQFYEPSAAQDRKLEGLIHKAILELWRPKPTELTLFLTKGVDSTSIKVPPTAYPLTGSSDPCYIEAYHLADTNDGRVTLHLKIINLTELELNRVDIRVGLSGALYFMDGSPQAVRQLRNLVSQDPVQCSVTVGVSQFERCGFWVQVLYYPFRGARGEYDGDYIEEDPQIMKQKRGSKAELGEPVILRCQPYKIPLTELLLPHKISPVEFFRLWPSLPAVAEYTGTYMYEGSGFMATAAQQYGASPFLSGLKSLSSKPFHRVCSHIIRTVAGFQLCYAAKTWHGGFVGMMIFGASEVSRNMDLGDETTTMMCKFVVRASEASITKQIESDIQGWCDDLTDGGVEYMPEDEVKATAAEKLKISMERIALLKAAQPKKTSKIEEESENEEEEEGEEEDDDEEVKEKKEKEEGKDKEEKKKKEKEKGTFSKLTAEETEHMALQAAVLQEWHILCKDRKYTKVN

Results are given in words; binding and its absence hold for the method and conditions named. Binding seen in cells or lysates may run through a third protein. These calls come from enrichment with a bait or labelling near it, and not all partners need be listed.

The test deals with Recombinant Myc- and His-tagged ArathEULS3 protein (Arabidopsis thaliana) (UniProt Q945P1). The test can be described thus: affinity purification with mass spectrometry; 100 µg purified Myc-tagged ArathEULS3 immobilised on Myc-Trap beads; 300 µg lysate of 2-week-old A. thaliana seedlings treated with 100 µM ABA for 5 h added for 1 h at 4 °C; washed with 10 mM Tris-HCl pH 7.5, 150 mM NaCl, 0.5 mM EDTA; LC-MS/MS of three replicates, compared with empty beads; only the target purified.
Regarding “30S ribosomal protein S19 (from UniProt P56808 1-92)”, the binding result is reported as “binds”. “Adenosyl homocysteinase (from UniProt O23255 1-485) (enzyme)”: the binding result is recorded as “binds”. For the substance At4g23680 (from UniProt Q9SUQ9), the binding entry was “binds”. The value for “Cysteine proteinase (from UniProt P43297 137-352) (enzyme)” was “binds”.

With “Elongation factor 1-alpha 1/2/3 (from UniProt P0DH99 1-449)”, the binding result is reported as “binds”. Regarding “Heat shock 70 kDa protein 3 (from UniProt O65719 1-649)”, the binding result is “binds”.

In the case of “Protein TPLATE (from UniProt F4J8D3 1-1176)”, the binding entry is listed as “binds”.
